PubChem BioAssay AID1259286 – Sanger Institute, 2017
Shown is a random part of 794 reagents tested. In the full data, 17 (2.1%) were called active. 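Calls use knock-down alone only; synergy above 0.15 marked separately; viability seems capped at control level; exposure time not given.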 Unmarked entries are inactive. Not stated in the record: the amount of reagent, the time to read-out.

Screen: 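Kinase knock-downs that reduce colorectal cancer cell viability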 (primary screen)
System: NCI-H630 human colorectal cancer cells
Reagents: siRNA pool against human genes
Conditions: anchor drugs BYL719 at 1 µM, cetuximab at 5 µg/ml or trametinib at 10 nM, or DMSO vehicle alone; exposure time not given
Read-out: 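Replicate-averaged viability as a fraction of non-targeting control, knock-down-alone robust z-score, and per-drug synergy scores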
Direction: viability z-score, knock-down alone: higher = more viable cells, weaker knock-down effect; viability vs control, knock-down alone: higher = more viable cells; synergy score with trametinib: higher = stronger synergistic killing with trametinib; synergy score with BYL719: higher = stronger synergistic killing with BYL719; synergy score with cetuximab: higher = stronger synergistic killing with cetuximab
Rule for the call: 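a gene is called essential when its knock-down-alone viability robust z-score is below -3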
Meaning of the calls: active = essential when knocked down alone; inactive = not essential alone

Target gene,"viability z-score, knock-down alone","viability vs control, knock-down alone (fraction of control)",synergy score with trametinib,synergy score with BYL719,synergy score with cetuximab
PRPS2,-1.08,0.942,-0.103,0.0525,-0.0191
CDK11A,-2.06,0.905,-0.0324,-0.0928,-0.0618
NRAS,0.464,1,-0.0479,-0.0814,-0.086
CDKN1A,0.464,1,-0.0479,-0.0576,-0.0502
UCKL1,0.464,1,-0.0479,-0.00375,0.022
EXOSC10,-0.0647,0.98,-0.0626,0.076,0.161
FXN,0.464,1,0.0162,-0.0455,0.00339
MAP2K7,0.464,1,-0.0292,0.0479,0.134
MED12,-0.346,0.969,-0.0523,-0.053,0.0556
MAK,0.398,0.997,-0.0503,-0.0837,0.088
PANK1,0.464,1,-0.0479,-0.0814,-0.0806
PXK,0.097,0.986,-0.0611,-0.0682,-0.0104
FLT3,-0.732,0.955,-0.0854,-0.0219,0.0408
EIF2AK3,0.45,0.999,-0.0286,-0.0491,0.0946
STK24,0.464,1,-0.0479,-0.0401,-0.0432
UHMK1,-1.19,0.938,-0.0877,-0.122,-0.11
NUCKS1,0.464,1,-0.0479,-0.0309,0.0727
PRKDC,0.464,1,0.0103,-0.0419,0.0868
KDR,0.464,1,-0.0267,-0.0814,-0.00452
LMTK2,0.464,1,-0.0479,0.000138,0.0348
MET,0.464,1,-0.0479,-0.0682,-0.0107
LCK,0.464,1,-0.0479,-0.0814,-0.00365
ERBB4,0.464,1,0.0562,-0.0286,0.00847
MYO3B,-0.549,0.962,-0.0843,-0.0991,-0.0305
CSNK1A1L,-0.614,0.959,0.0483,-0.00766,-0.0771
CHUK,-0.368,0.969,-0.07,-0.00429,0.0764
EPHA6,0.464,1,-0.0304,0.104,0.133
MAGI2,-1.32,0.932,-0.0922,-0.0126,-0.0623
RIPK1,0.464,1,-0.0479,-0.0452,0.0594
GUCY2EP,0.464,1,0.0283,0.0321,0.115
PFKFB4,0.464,1,-0.0479,-0.0814,-0.0119
UCK1,0.464,1,-0.0479,-0.000115,0.0528
MAPK8,0.464,1,-0.029,-0.0291,0.126
AK1,0.464,1,-0.04,0.0795,0.0573
TBX3,0.464,1,0.0133,-0.0814,0.05
TNK1,0.178,0.989,-0.0287,0.0535,0.0916
MAP2K4,0.464,1,-0.0416,-0.0731,-0.0678
IPMK,0.464,1,-0.0479,-0.0247,-0.0121
CDADC1,0.464,1,-0.0335,-0.04,0.0902
PDK4,0.464,1,-0.0479,-0.0304,0.000137
TRIB3,0.464,1,-0.0479,-0.0139,0.0442
MAPK1,0.464,1,0.0584,-0.003,0.112
ATM,0.353,0.996,-0.0354,0.0612,0.152
RPS6KB1,0.464,1,0.00273,0.00716,0.13
TSSK3,0.464,1,0.00837,0.103,0.0977
TRIB1,0.464,1,-0.0479,-0.0514,0.033
DCK,-4 (active),0.831,-0.192,0.14,-0.0169
ABL2,-0.148,0.977,-0.0508,-0.0147,0.0373
LIMK2,0.464,1,-0.0479,0.0419,0.00619
PI4KB,0.464,1,-0.0479,-0.0814,0.107
ETNK1,-0.308,0.971,0.00349,-0.0603,-0.022
OXSR1,-0.851,0.95,-0.0952,-0.0362,-0.0543
TBK1,0.464,1,-0.0479,-0.0593,0.00432
JAK3,0.464,1,-0.0479,-0.0686,0.0163
PACSIN1,0.464,1,-0.0288,-0.00449,-0.0404

Reformatted: 5 of the entries above
MYO3B
- viability z-score, knock-down alone: -0.549
- viability vs control, knock-down alone (fraction of control): 0.962
- synergy score with trametinib: -0.0843
- synergy score with BYL719: -0.0991
- synergy score with cetuximab: -0.0305

CSNK1A1L
- viability z-score, knock-down alone: -0.614
- viability vs control, knock-down alone (fraction of control): 0.959
- synergy score with trametinib: 0.0483
- synergy score with BYL719: -0.00766
- synergy score with cetuximab: -0.0771

CHUK
- viability z-score, knock-down alone: -0.368
- viability vs control, knock-down alone (fraction of control): 0.969
- synergy score with trametinib: -0.07
- synergy score with BYL719: -0.00429
- synergy score with cetuximab: 0.0764

EPHA6
- viability z-score, knock-down alone: 0.464
- viability vs control, knock-down alone (fraction of control): 1
- synergy score with trametinib: -0.0304
- synergy score with BYL719: 0.104
- synergy score with cetuximab: 0.133

MAGI2
- viability z-score, knock-down alone: -1.32
- viability vs control, knock-down alone (fraction of control): 0.932
- synergy score with trametinib: -0.0922
- synergy score with BYL719: -0.0126
- synergy score with cetuximab: -0.0623
